We go through two substances from publication PMC8291714.

By UniProt entry, the sequences of proteins in these tests, tags left out. Residues count along the entry.
UniProt P42224: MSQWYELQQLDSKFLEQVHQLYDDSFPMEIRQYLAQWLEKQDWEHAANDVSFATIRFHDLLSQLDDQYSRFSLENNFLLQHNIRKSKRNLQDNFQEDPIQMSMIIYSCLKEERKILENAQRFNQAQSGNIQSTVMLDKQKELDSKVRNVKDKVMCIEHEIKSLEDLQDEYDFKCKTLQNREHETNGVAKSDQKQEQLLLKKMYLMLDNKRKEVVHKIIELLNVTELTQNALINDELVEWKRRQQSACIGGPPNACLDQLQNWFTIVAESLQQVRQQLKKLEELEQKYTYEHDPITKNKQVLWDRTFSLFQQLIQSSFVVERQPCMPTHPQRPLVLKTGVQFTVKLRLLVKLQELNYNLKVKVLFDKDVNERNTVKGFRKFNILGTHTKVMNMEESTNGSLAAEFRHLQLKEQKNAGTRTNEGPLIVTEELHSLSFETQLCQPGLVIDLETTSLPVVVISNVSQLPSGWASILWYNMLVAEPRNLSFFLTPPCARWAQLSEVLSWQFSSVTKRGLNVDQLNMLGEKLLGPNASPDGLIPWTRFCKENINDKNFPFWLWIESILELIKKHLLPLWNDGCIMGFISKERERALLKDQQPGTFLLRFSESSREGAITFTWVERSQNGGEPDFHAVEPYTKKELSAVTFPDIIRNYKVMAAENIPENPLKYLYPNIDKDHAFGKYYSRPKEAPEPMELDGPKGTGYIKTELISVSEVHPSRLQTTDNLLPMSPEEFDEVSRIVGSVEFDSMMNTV
UniProt Q9IPJ8, residues 174-297: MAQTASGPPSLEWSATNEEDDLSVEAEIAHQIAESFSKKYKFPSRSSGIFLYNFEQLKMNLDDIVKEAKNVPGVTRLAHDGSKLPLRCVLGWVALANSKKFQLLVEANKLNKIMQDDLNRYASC
UniProt O55611: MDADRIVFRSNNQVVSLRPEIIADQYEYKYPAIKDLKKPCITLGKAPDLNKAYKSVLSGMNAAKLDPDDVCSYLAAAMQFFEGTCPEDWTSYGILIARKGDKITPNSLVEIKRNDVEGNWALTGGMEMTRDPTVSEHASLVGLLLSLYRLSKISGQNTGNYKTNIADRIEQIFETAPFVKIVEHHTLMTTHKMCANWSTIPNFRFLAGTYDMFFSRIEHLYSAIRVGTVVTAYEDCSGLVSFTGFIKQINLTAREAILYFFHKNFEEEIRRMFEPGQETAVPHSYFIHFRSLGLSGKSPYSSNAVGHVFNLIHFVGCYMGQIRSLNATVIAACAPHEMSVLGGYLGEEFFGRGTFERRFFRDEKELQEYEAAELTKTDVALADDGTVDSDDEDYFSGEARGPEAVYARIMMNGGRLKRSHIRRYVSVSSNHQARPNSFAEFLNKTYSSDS

Results are given in words; binding and its absence hold for the method and conditions named. Binding seen in cells or lysates may run through a third protein. Some entries that bind do so weakly or less than the wild type.

Experiment [1] has as its target STAT1-GFP, HEK-293T cells not treated with IFN (UniProt P42224). Nature of the experiment: co-IP.
Experiment [2] concerns the target GFP-PCTD (P protein residues 174-297) (Rabies virus (RABV)) (UniProt Q9IPJ8). In words: co-IP.

On to “FLAG-N protein (from UniProt O55611 1-450)”, for which the binding entry in experiment [1] is “no binding”.

On to “mCherry-N protein (from UniProt O55611 1-450)”, for which, in experiment [2], the binding entry is given as “binds”.
